Test results reported in the supplement of paper PMC4604168 (melanoma cell lines).
Some of the results follow. Single values are uncertain, as repeats are few or missing.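 Imaging used 1,536-well plates; nuclei positive for cleaved PARP by antibody were divided by total DNA-stained nuclei to yield the apoptosis fraction. Doses for screening kept most cells viable, and cell lines differ markedly in resting and induced cleaved-PARP levels.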

Legend:
Assay in all cases: cleaved PARP positive nuclei fraction relative to DMSO control; melanoma cells; higher = more apoptosis
Details in all cases: library dose: low library concentration; 72 h
[1] = tested on: 501Mel
[2] = tested on: A101D
[3] = tested on: A2058
[4] = tested on: C32
[5] = tested on: CBRC008 (line from a melanoma biopsy)
[6] = tested on: CBRC014 (line from a melanoma biopsy)
[7] = tested on: CBRC016 (line from a melanoma biopsy)
[8] = tested on: CBRC017 (line from a melanoma biopsy)
[9] = tested on: COLO792
[10] = tested on: COLO800
[11] = tested on: COLO829
[12] = tested on: G361
[13] = tested on: IPC-298
[14] = tested on: IST-MEL1
[15] = tested on: LB2518-MEL
[16] = tested on: LOXIMVI

Structure (SMILES) | cleaved PARP positive nuclei fraction [1] [%] | cleaved PARP positive nuclei fraction [2] [%] | cleaved PARP positive nuclei fraction [3] [%] | cleaved PARP positive nuclei fraction [4] [%] | cleaved PARP positive nuclei fraction [5] [%] | cleaved PARP positive nuclei fraction [6] [%] | cleaved PARP positive nuclei fraction [7] [%] | cleaved PARP positive nuclei fraction [8] [%] | cleaved PARP positive nuclei fraction [9] [%] | cleaved PARP positive nuclei fraction [10] [%] | cleaved PARP positive nuclei fraction [11] [%] | cleaved PARP positive nuclei fraction [12] [%] | cleaved PARP positive nuclei fraction [13] [%] | cleaved PARP positive nuclei fraction [14] [%] | cleaved PARP positive nuclei fraction [15] [%] | cleaved PARP positive nuclei fraction [16] [%]
CC1(C)CCC(c2ccc(Cl)cc2)=C(CN2CCN(c3ccc(C(=O)NS(=O)(=O)c4ccc(N[C@H](CCN5CCOCC5)CSc5ccccc5)c(S(=O)(=O)C(F)(F)F)c4)cc3)CC2)C1 + COC(=O)c1sccc1S(=O)(=O)Nc1ccc(Nc2ccccc2)cc1OC [GSK0660] (first compound 0.4 µM, partner dose 1 µM) | 60.9 | 67.6 | 124 | 129 | 317 | 431 | 249 | 530 | 342 | 66.5 | 60.7 | 183 | 97.5 | 398 | 86.7 | 126
CC(=O)O[C@@]12CO[C@@H]1C[C@H](O)[C@@]1(C)C(=O)[C@H](O)C3=C(C)[C@@H](OC(=O)[C@H](O)[C@@H](NC(=O)OC(C)(C)C)c4ccccc4)C[C@@](O)([C@@H](OC(=O)c4ccccc4)[C@H]21)C3(C)C [Docetaxel] + O=C(Nc1ccccc1)c1cc([N+](=O)[O-])ccc1Cl [GW9662] (first compound 0.0001 µM, partner dose 2 µM) | 199 | 42.1 | 5310 | 398 | 323 | 143 | 96.5 | 161 | 368 | 535 | 486 | 530 | 198 | 109 | 119 | 51.7
CS(=O)(=O)c1ccc(C(=O)Nc2ccc(Cl)c(-c3ccccn3)c2)c(Cl)c1 [vismodegib] + CCN(CC)CCCCNc1ncc2cc(-c3cc(OC)cc(OC)c3)c(NC(=O)NC(C)(C)C)nc2n1 [PD173074] (first compound 1 µM, partner dose 0.1 µM) | 125 | 26.9 | 47.2 | 71.6 | 30.2 | 102 | 62.9 | 104 | 26.8 | 223 | 171 | 96.8 | 124 | 56.7 | 61.4 | 161
CC1(C)CCC(c2ccc(Cl)cc2)=C(CN2CCN(c3ccc(C(=O)NS(=O)(=O)c4ccc(N[C@H](CCN5CCOCC5)CSc5ccccc5)c(S(=O)(=O)C(F)(F)F)c4)cc3)CC2)C1 + O=C(Nc1ccccc1)c1cc([N+](=O)[O-])ccc1Cl [GW9662] (first compound 0.4 µM, partner dose 2 µM) | 32 | 58 | 194 | 119 | 218 | 362 | 233 | 423 | 175 | 295 | 320 | 214 | 113 | 103 | 21 | 102
CN(c1ncccc1CNc1nc(Nc2ccc3c(c2)CC(=O)N3)ncc1C(F)(F)F)S(C)(=O)=O + COc1cc2ncnc(Nc3ccc(Oc4ccccc4)cc3)c2cc1OC [SrcI1] (first compound 0.08 µM, partner dose 2 µM) | 63.9 | 10.9 | 149 | 58.1 | 65.6 | 89.9 | 57.9 | 288 | 105 | 13.9 | 296 | 89.2 | 106 | 46.7 | 66 | 22.8
CN(c1ncccc1CNc1nc(Nc2ccc3c(c2)CC(=O)N3)ncc1C(F)(F)F)S(C)(=O)=O + CCN(CC)CCCCNc1ncc2cc(-c3cc(OC)cc(OC)c3)c(NC(=O)NC(C)(C)C)nc2n1 [PD173074] (first compound 0.08 µM, partner dose 0.1 µM) | 121 | 30.6 | 51.9 | 85.9 | 115 | 95 | 41 | 68 | 100 | 162 | 140 | 140 | 62.9 | 181 | 49.4 | 176
NC1(c2ccc(-c3nc4ccn5c(=O)[nH]nc5c4cc3-c3ccccc3)cc2)CCC1 + CCCCCCCCCCCC1=C(O)C(=O)C=C(O)C1=O [Embelin] (first compound 0.4 µM, partner dose 1.2 µM) | 142 | 13.6 | 200 | 196 | 92.5 | 88.2 | 38.9 | 85.2 | 190 | 222 | 63.7 | 128 | 92 | 114 | 144 | 149
CC(=O)O[C@@]12CO[C@@H]1C[C@H](O)[C@@]1(C)C(=O)[C@H](O)C3=C(C)[C@@H](OC(=O)[C@H](O)[C@@H](NC(=O)OC(C)(C)C)c4ccccc4)C[C@@](O)([C@@H](OC(=O)c4ccccc4)[C@H]21)C3(C)C [Docetaxel] + Cn1cc(/C=C2\C(=O)Nc3cccnc32)c2ccccc21 [GW441756] (first compound 0.0001 µM, partner dose 0.4 µM) | 249 | 29.8 | 3630 | 361 | 271 | 147 | 184 | 115 | 526 | 298 | 118 | 1100 | 239 | 132 | 119 | 40.9
CS(=O)(=O)c1ccc(C(=O)Nc2ccc(Cl)c(-c3ccccn3)c2)c(Cl)c1 [vismodegib] + CCc1ccc(CCOc2ccc(CC3SC(=O)NC3=O)cc2)nc1 [pioglitazone] (first compound 1 µM, partner dose 2 µM) | 122 | 9.62 | 100 | 75.2 | 393 | 126 | 80.9 | 98.1 | 45.4 | 204 | 59.2 | 113 | 147 | 34.5 | 81.8 | 88
CC1(C)CCC(c2ccc(Cl)cc2)=C(CN2CCN(c3ccc(C(=O)NS(=O)(=O)c4ccc(N[C@H](CCN5CCOCC5)CSc5ccccc5)c(S(=O)(=O)C(F)(F)F)c4)cc3)CC2)C1 + O=C1NC(=O)/C(=C/c2ccc(-c3ccc(F)cc3O)o2)S1 [AS252424] (first compound 0.4 µM, partner dose 1 µM) | 220 | 112 | 108 | 763 | 792 | 1850 | 238 | 511 | 552 | 326 | 84.4 | 162 | 389 | 226 | 612 | 157
Cn1sc(=O)n(Cc2ccccc2)c1=O + COc1cc(N2CCC(N3CCN(C)CC3)CC2)ccc1Nc1ncc(Cl)c(Nc2ccccc2S(=O)(=O)C(C)C)n1 [NVP-TAE684] (first compound 0.4 µM, partner dose 0.08 µM) | 74.8 | 8.48 | 79.4 | 149 | 31.2 | 97.5 | 35.6 | 59.1 | 258 | 151 | 107 | 111 | 179 | 70.5 | 58 | 126
CN(c1ncccc1CNc1nc(Nc2ccc3c(c2)CC(=O)N3)ncc1C(F)(F)F)S(C)(=O)=O + O=C(Nc1ccccc1)c1cc([N+](=O)[O-])ccc1Cl [GW9662] (first compound 0.08 µM, partner dose 2 µM) | 61.7 | 42.4 | 100 | 160 | 24.6 | 83.7 | 73.1 | 199 | 38 | 78.2 | 110 | 68.4 | 45.9 | 115 | 71.8 | 44.6
CCN(CC)CCNC(=O)c1c(C)[nH]c(/C=C2\C(=O)Nc3ccc(F)cc32)c1C [sunitinib] + Cn1cc(/C=C2\C(=O)Nc3cccnc32)c2ccccc21 [GW441756] (first compound 0.4 µM, partner dose 0.4 µM) | 93.2 | 113 | 76.4 | 84.5 | 24.4 | 98.5 | 71.4 | 83.5 | 104 | 197 | 56.7 | 92.8 | 95.3 | 78.9 | 44.7 | 80
CCN(CC)CCNC(=O)c1c(C)[nH]c(/C=C2\C(=O)Nc3ccc(F)cc32)c1C [sunitinib] + COc1cc(N2CCC(N3CCN(C)CC3)CC2)ccc1Nc1ncc(Cl)c(Nc2ccccc2S(=O)(=O)C(C)C)n1 [NVP-TAE684] (first compound 0.4 µM, partner dose 0.08 µM) | 391 | 62.3 | 53 | 92.5 | 164 | 84 | 58.4 | 67.1 | 157 | 189 | 63.5 | 155 | 219 | 102 | 92.8 | 137
Cn1cnc2c(F)c(Nc3ccc(Br)cc3Cl)c(C(=O)NOCCO)cc21 [selumetinib] + CCN(CC)CCCCNc1ncc2cc(-c3cc(OC)cc(OC)c3)c(NC(=O)NC(C)(C)C)nc2n1 [PD173074] (first compound 0.015 µM, partner dose 0.1 µM) | 274 | 107 | 48.2 | 182 | 50.7 | 95.9 | 59.1 | 120 | 45.4 | 121 | 20 | 91.3 | 185 | 118 | 116 | 130
COc1ccc(C2=N[C@@H](c3ccc(Cl)cc3)[C@@H](c3ccc(Cl)cc3)N2C(=O)N2CCNC(=O)C2)c(OC(C)C)c1 [Nutlin-3] + O=S(=O)(c1ccccc1)N(CC(F)(F)F)c1ccc(C(O)(C(F)(F)F)C(F)(F)F)cc1 [T0901317] (first compound 0.1 µM, partner dose 1.4 µM) | 118 | 28.9 | 93.1 | 117 | 59.8 | 129 | 45.9 | 113 | 78 | 93 | 190 | 101 | 211 | 40.5 | 83.1 | 84.1
CCN(CC)CCNC(=O)c1c(C)[nH]c(/C=C2\C(=O)Nc3ccc(F)cc32)c1C [sunitinib] + O=S(=O)(c1ccccc1)N(CC(F)(F)F)c1ccc(C(O)(C(F)(F)F)C(F)(F)F)cc1 [T0901317] (first compound 0.4 µM, partner dose 1.4 µM) | 293 | 46.3 | 65.9 | 86.8 | 112 | 92.1 | 93.3 | 118 | 103 | 66.8 | 64.4 | 82.3 | 70.4 | 36.4 | 37.1 | 161
COc1ccc(C2=N[C@@H](c3ccc(Cl)cc3)[C@@H](c3ccc(Cl)cc3)N2C(=O)N2CCNC(=O)C2)c(OC(C)C)c1 [Nutlin-3] + Cc1cc([N+](=O)[O-])ccc1NS(=O)(=O)c1cc(Cl)ccc1Cl [FH535] (first compound 0.1 µM, partner dose 1 µM) | 87.8 | 31.8 | 46.7 | 79.6 | 364 | 164 | 962 | 710 | 83.7 | 175 | 117 | 99.4 | 63.4 | 68.7 | 72.8 | 133

An excerpt from above, showing only cleaved PARP positive nuclei fraction [7] [%] and cleaved PARP positive nuclei fraction [12] [%].
Structure (SMILES),cleaved PARP positive nuclei fraction [7] [%],cleaved PARP positive nuclei fraction [12] [%]
"Cn1cnc2c(F)c(Nc3ccc(Br)cc3Cl)c(C(=O)NOCCO)cc21 [selumetinib] + CCN(CC)CCCCNc1ncc2cc(-c3cc(OC)cc(OC)c3)c(NC(=O)NC(C)(C)C)nc2n1 [PD173074] (first compound 0.015 µM, partner dose 0.1 µM)",59.1,91.3
"COc1ccc(C2=N[C@@H](c3ccc(Cl)cc3)[C@@H](c3ccc(Cl)cc3)N2C(=O)N2CCNC(=O)C2)c(OC(C)C)c1 [Nutlin-3] + O=S(=O)(c1ccccc1)N(CC(F)(F)F)c1ccc(C(O)(C(F)(F)F)C(F)(F)F)cc1 [T0901317] (first compound 0.1 µM, partner dose 1.4 µM)",45.9,101
